Source: publication PMC10183829, “Shuffled ATG8 interacting motifs form an ancestral bridge between UFMylation and autophagy” (The EMBO Journal, 2023)
Results are given in words; binding and its absence hold for the method and conditions named. For some assays here: In cells and extracts the contact can be indirect. Some results given as binding are weak or reduced against the parent protein; the word gives no strength. For some assays here: Tags and fused reporters may be left off the sequences shown.

Protein sequences, listed by entry. Tags and fused reporters are not part of them. Lines headed by an entry give the natural chain unless they say otherwise; changes in a name come on top. Residues count along the entry.
UniProt O95166: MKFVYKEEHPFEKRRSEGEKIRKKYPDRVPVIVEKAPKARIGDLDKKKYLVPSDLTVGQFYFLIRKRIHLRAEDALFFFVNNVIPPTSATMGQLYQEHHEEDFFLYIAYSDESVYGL
GABARAP (purified): residues 3-116 of O95166
UniProt P61960: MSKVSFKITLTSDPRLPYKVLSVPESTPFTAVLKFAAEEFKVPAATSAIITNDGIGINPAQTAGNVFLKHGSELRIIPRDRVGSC

Key:
GST-GABARAP (human) = GST-GABARAP (human) (UniProt O95166); assay: pull-down; as a1, with the cAIM peptide added as competitor (200 μM final in Fig 3B)
[1] = biological target: GABARAP (purified) (human) (UniProt O95166); assay: ITC; 25°C, 50 mM sodium phosphate pH 7.0, 100 mM NaCl; GABARAP or HsUFM1 in the cell, HsC53 variant in the syringe; global analysis with a hetero-association model A + B; both purified
GST-HsUFM1 (human) = GST-HsUFM1 (human) (UniProt P61960); assay: microscopy-based on-bead protein-protein interaction assay; both purified
[2] = biological target: T1, ATG8A (purified) (Arabidopsis thaliana) (UniProt Q8LEM4); assay: NMR titration; unlabeled protein or peptide (50-300 μM) added to 100 μM 15N-labeled protein; 1H-15N HSQC, 25°C, 50 mM sodium phosphate pH 7.0, 100 mM NaCl, 10% D2O; both purified
T1 sequence: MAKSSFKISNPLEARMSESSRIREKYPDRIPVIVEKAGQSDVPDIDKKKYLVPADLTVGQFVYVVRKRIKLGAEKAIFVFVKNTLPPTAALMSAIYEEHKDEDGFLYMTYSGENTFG

[3] = biological target: GABARAP (purified) (human) (UniProt O95166); assay: as above

B1: MBP-HsC53 (protein, UniProt Q96JB5 1-506)
chain: MEDHQHVPIDIQTSKLLDWLVDRRHCSLKWQSLVLTIREKINAAIQDMPESEEIAQLLSGSYIHYFHCLRILDLLKGTEASTKNIFGRYSSQRMKDWQEIIALYEKDNTYLVELSSLLVRNVNYEIPSLKKQIAKCQQLQQEYSRKEEECQAGAAEMREQFYHSCKQYGITGENVRGELLALVKDLPSQLAEIGAAAQQSLGEAIDVYQASVGFVCESPTEQVLPMLRFVQKRGNSTVYEWRTGTEPSVVERPHLEELPEQVAEDAIDWGDFGVEAVSEGTDSGISAEAAGIDWGIFPESDSKDPGGDGIDWGDDAVALQITVLEAGTQAPEGVARGPDALTLLEYTETRNQFLDELMELEIFLAQRAVELSEEADVLSVSQFQLAPAILQGQTKEKMVTMVSVLEDLIGKLTSLQLQHLFMILASPRYVDRVTEFLQQKLKQSQLLALKKELMVQKQQEALEEQAALEPKLDLLLEKTKELQKLIEADISKRYSGRPVNLMGTSL
binding (GST-GABARAP (human)): binds

B2: HsC53 wt (purified) (protein, UniProt Q96JB5 1-506)
chain: MEDHQHVPIDIQTSKLLDWLVDRRHCSLKWQSLVLTIREKINAAIQDMPESEEIAQLLSGSYIHYFHCLRILDLLKGTEASTKNIFGRYSSQRMKDWQEIIALYEKDNTYLVELSSLLVRNVNYEIPSLKKQIAKCQQLQQEYSRKEEECQAGAAEMREQFYHSCKQYGITGENVRGELLALVKDLPSQLAEIGAAAQQSLGEAIDVYQASVGFVCESPTEQVLPMLRFVQKRGNSTVYEWRTGTEPSVVERPHLEELPEQVAEDAIDWGDFGVEAVSEGTDSGISAEAAGIDWGIFPESDSKDPGGDGIDWGDDAVALQITVLEAGTQAPEGVARGPDALTLLEYTETRNQFLDELMELEIFLAQRAVELSEEADVLSVSQFQLAPAILQGQTKEKMVTMVSVLEDLIGKLTSLQLQHLFMILASPRYVDRVTEFLQQKLKQSQLLALKKELMVQKQQEALEEQAALEPKLDLLLEKTKELQKLIEADISKRYSGRPVNLMGTSL
binding [1]: binds

GPLHDDNEWNISVVDD [AtUBA5 LIR peptide]
binding (GST-HsUFM1 (human)): binds
binding [2]: binds

B3: HsC53 IDR (263-316) (domain or fragment, UniProt Q96JB5 263-316)
chain: AEDAIDWGDFGVEAVSEGTDSGISAEAAGIDWGIFPESDSKDPGGDGIDWGDDA
binding [3]: binds
